Results are given in words; binding and its absence hold for the method and conditions named. In cells and extracts the contact can be indirect. A yes stands for co-enrichment or nearness to the bait. Other partners may have been found. For some of these results: No binding means not detected with the bait.
Legend:
[1] = target: Sti1-TAP (C-terminally TAP-tagged C. albicans Sti1) (C. albicans); assay: affinity purification with mass spectrometry; tandem affinity purification of TAP-tagged co-chaperone from C. albicans lysate (IgG magnetic beads, TEV cleavage, calmodulin beads); cells in YPD at 30°C; SAINTexpress against TAP-tagged Cas5 control, false discovery rate 2%
[2] = target: Hsp90^E36A-GFP (C-terminally GFP-tagged E36A trap mutant of C. albicans Hsp90) (C. albicans) (UniProt P46598); assay: affinity purification with mass spectrometry; single-step GFP-trap resin purification of Hsp90^E36A-GFP from C. albicans lysate; cells in YPD at 30°C untreated, with 8 μg/mL fluconazole or with 100 nM caspofungin; SAINTexpress against Eno1-GFP control, BFDR 2%

By UniProt entry, the sequences of proteins in these tests, tags left out.
UniProt A0A1D8PKC3: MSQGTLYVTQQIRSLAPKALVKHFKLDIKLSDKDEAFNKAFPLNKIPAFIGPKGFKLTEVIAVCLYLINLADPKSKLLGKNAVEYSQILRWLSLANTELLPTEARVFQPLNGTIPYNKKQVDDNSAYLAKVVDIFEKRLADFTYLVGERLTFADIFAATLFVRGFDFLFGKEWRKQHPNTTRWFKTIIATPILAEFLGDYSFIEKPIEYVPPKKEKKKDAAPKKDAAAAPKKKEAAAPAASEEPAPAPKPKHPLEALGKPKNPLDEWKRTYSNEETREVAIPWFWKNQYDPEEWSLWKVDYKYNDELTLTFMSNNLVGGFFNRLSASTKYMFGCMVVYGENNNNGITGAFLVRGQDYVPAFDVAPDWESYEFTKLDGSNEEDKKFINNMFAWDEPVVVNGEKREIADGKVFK
UniProt O13354: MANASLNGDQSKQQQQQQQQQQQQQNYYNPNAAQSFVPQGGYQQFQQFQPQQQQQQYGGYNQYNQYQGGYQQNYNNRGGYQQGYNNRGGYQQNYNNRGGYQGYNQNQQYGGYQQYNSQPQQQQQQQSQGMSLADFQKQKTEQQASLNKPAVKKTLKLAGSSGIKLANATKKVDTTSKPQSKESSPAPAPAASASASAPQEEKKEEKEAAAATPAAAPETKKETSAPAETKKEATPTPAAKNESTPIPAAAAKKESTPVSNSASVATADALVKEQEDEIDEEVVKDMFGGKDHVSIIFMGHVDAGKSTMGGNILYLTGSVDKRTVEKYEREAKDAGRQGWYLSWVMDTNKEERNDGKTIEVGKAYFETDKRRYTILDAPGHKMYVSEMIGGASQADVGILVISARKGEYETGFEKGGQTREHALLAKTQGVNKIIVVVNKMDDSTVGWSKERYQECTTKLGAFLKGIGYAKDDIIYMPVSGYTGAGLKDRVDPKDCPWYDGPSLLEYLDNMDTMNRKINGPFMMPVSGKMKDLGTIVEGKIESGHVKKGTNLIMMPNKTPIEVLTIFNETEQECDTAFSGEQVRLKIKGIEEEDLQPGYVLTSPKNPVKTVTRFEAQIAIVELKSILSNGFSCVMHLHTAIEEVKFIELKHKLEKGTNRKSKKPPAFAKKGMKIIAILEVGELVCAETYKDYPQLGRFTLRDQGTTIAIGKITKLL
UniProt A0A1D8PN90: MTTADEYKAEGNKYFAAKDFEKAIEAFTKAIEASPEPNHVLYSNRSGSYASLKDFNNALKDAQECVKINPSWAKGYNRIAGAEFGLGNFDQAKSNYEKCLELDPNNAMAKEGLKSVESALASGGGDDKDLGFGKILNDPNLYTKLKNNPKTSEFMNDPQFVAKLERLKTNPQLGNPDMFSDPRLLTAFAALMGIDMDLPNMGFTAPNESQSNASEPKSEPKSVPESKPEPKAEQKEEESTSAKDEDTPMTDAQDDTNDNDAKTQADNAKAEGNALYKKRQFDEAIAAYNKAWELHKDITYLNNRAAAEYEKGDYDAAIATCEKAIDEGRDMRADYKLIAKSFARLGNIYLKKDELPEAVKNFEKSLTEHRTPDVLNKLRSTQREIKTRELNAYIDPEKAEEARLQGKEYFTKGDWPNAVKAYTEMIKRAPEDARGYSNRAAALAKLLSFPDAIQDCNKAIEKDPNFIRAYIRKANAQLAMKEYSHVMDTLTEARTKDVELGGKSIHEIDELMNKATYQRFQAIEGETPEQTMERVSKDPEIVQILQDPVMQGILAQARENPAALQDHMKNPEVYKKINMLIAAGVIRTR

Substance	binding [1]	binding [2]
Hsp90 (C. albicans), endogenous, untagged (from UniProt P46598 1-707)	binds	–
Cam1 (C. albicans), endogenous (from UniProt A0A1D8PKC3 1-412)	–	binds
Sup35 (C. albicans), endogenous (from UniProt O13354 1-715)	–	binds
Sti1 (C. albicans), endogenous, untagged (from UniProt A0A1D8PN90 1-589)	–	no binding

— article PMC6638986
